Data reported in paper PMC11532494 (Nature Communications, 2024).
Read-outs that look alike come from different tables or passages of the source.

The chains behind the UniProt entries cited, without tags or fusion partners. Residues count along the entry.
UniProt A0A2N0XRJ0, 1-372: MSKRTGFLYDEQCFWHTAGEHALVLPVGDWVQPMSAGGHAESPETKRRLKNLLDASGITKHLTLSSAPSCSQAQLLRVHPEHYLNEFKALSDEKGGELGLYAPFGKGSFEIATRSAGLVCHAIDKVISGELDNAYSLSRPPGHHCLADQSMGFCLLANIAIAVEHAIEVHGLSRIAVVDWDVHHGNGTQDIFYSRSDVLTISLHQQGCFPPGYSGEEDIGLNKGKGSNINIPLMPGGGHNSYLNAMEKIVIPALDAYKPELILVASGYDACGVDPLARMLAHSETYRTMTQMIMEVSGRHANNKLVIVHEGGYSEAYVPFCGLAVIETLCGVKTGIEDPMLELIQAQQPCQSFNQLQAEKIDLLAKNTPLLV

Experiments:
(UniProt A0A2N0XRJ0) = assay: biochemical; design: species or system Vibrio sp.; settings: for IC50: 60 µM QPKKac, 1.5 nM enzyme, 60 min, 37 °C
HsHDAC11 (5f) = settings: cited from earlier work

O=C(CCCCCCC(=O)Nc1ccccc1)NO [SAHA, suberoylanilide hydroxamic acid]
Ki ((UniProt A0A2N0XRJ0)): 8.9 nM | IC50 ((UniProt A0A2N0XRJ0); read-out: IC50): 2.03e-08 M | IC50 ((UniProt A0A2N0XRJ0); decadic log of IC50, read-out: Log[IC50(M)] (converted)): 2.04e-08 M | inhibition of HsHDAC11 (5f), in words (HsHDAC11 (5f)): only weakly inhibited
